# Measured values as given in PubChem BioAssay AID1347076 (National Center for Advancing Translational Sciences (NCATS), 2019).
# About 13,000 (3.2%) of roughly 400,000 compounds were called active. The shares of active, inactive and inconclusive entries below differ from those in the screen. The call rests on the fitted dose curve; in most records, active means well fitted cell-killing curve with a large enough effect; inconclusive means small, poorly fitted or top-dose-only effect, or effect the other way; inactive means flat fitted curve, though single readings scatter. Potencies beside an inconclusive call are fits to weak or partial responses and may not hold up.
# Test: qHTS assay for MDR1-selective chemotherapeutics: Primary screen using the drug-selected MDR subline cells KB-V1; further: nearly all actives have a fitted effect of over 60% in size
# Settings: KB-V1 MDR cells viability, CellTiter-Glo, 72 h; series mostly up to 46.1 µM
# In short: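 qHTS viability screen in drug-selected KB-V1 MDR cells: 72 h compound treatment at 37 degrees C, ATP luminescence end point.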
# Potency means the concentration at half of the fitted maximal effect.
row,SMILES,Potency
1,CCC1(c2ccc(F)cc2)NC(=O)N(CC(=O)NCC(=O)Nc2cccc(C)c2C)C1=O (centres undefined),"inconclusive: 1.46 µM [rising, full curve]"
2,CCn1c(=O)c2c(nc(SCC(=O)N3CCCC(C)C3)n2C)n(C)c1=O (centres undefined),"inconclusive: 7.31 µM [cytotoxic, partial curve, poor fit]"
3,O=C(Cc1ccccc1)N1CCCC(c2nc(-c3cccs3)no2)C1 (centres undefined),inactive
4,O=C(N/N=C/c1ccco1)c1cc(-c2ccc3ccccc3c2)n[nH]1,inactive
5,Cc1nnc(N2CCN(c3cccc(C(F)(F)F)c3)CC2)c2c1nnn2Cc1ccccc1,"inconclusive: 2.59 µM [cytotoxic, full curve]"
6,COc1ccc(C2CC(=O)Oc3c(C(CCN4CCN(c5ccccc5)CC4)c4ccc(N(C)C)cc4)c(OC)cc(OC)c32)cc1 (centres undefined),"inconclusive: 18.4 µM [rising, single point]"
7,C[C@H](CO)N1C[C@H](C)[C@@H](CN(C)Cc2ccc(Cl)c(Cl)c2)Oc2c(NC(=O)Cc3ccccc3)cccc2C1=O,inactive
8,O=C(O)/C=C/C(=O)NCCC(c1ccccc1)c1ccccc1,inactive
9,COc1ccc(CCNc2ccncn2)cc1OC,"inconclusive: 18.4 µM [cytotoxic, partial curve]"
10,Cn1c(C(=O)N2CCC(C(=O)N3CCN(c4ccccc4)CC3)CC2)cc2sccc21,"inconclusive: 29.1 µM [cytotoxic, single point]"
11,COc1ccc(NC(=O)CCCn2c(=O)c3sccc3n(Cc3ccccc3C)c2=O)cc1,active: 9.2 µM
12,O=c1cc(CN2CCOCC2)c2cc(Cl)c(O)cc2o1,"inconclusive: 29.1 µM [rising, single point]"
13,COc1ccc(CN2C(=O)Cc3c2nc(N)c2c(N)nc(N4CCOCC4)c(C#N)c32)cc1,"inconclusive: 18.4 µM [cytotoxic, single point]"
14,NC(=O)c1cc2ccccc2o/c1=N\NC(=O)c1ccc(F)cc1,inactive
15,CCN1CCN(c2ccc(NC(=O)COc3ccc(Cl)cc3C)cc2)CC1,"inconclusive: 2.91 µM [rising, partial curve, poor fit]"
16,COc1ccc(N2Cc3cccc(C(=O)Nc4cccc(F)c4)c3C2=O)cc1,inactive
17,O=C(CSc1nc2c(c(=O)n1-c1ccc(F)cc1)SCC2)N1CCCC1,"inconclusive: 16.4 µM [cytotoxic, partial curve]"
18,Cc1nc2sc3c(c2c(=O)n1/N=C/c1ccco1)CCCC3,"inconclusive: 16.4 µM [cytotoxic, partial curve, poor fit]"
19,O=C(CNC(=O)c1ccc2c(c1)OCO2)N/N=C/c1cc(Br)ccc1O,inactive
20,CC12CCC(=O)N1C(C(=O)Nc1ccc(Cl)c(S(=O)(=O)N3CCCCC3)c1)CS2 (centres undefined),"inconclusive: 18.4 µM [cytotoxic, single point]"
21,Cc1cc(C(F)(F)F)n2nc(-c3cnn(C)c3C(F)(F)F)c(Cl)c2n1,"inconclusive: 13 µM [cytotoxic, single point]"
22,CCN1CCN(c2cc(C)c3cc(NC(=S)N(CC)CC)ccc3n2)CC1,"inconclusive: 29.1 µM [cytotoxic, single point]"
23,O=C(NC(=S)N1CCN(C2CCCCC2)CC1)c1ccccc1,"inconclusive: 14.6 µM [cytotoxic, partial curve, poor fit]"

# Reprinted from the results shown, 2 compounds:
row,SMILES,Potency
11,COc1ccc(NC(=O)CCCn2c(=O)c3sccc3n(Cc3ccccc3C)c2=O)cc1,active: 9.2 µM
12,O=c1cc(CN2CCOCC2)c2cc(Cl)c(O)cc2o1,"inconclusive: 29.1 µM [rising, single point]"

# (further entries)

row,SMILES,Potency
1,COc1ccccc1S(=O)(=O)N(C)C[C@H]1Oc2ncc(Br)cc2C(=O)N([C@H](C)CO)C[C@H]1C,inactive
2,Cc1nc(NC(C)C)c2oc3ccccc3c2n1,inactive
3,Cc1noc2ncnc(NCc3ccc(Cl)cc3)c12,inactive
4,C#CCOCCOCCOCCNc1nc(N2CCN(C(=O)[C@H]([C@@H](C)CC)n3cc([C@@H](N)CC(C)C)nn3)CC2)nc(N2CCN(C(=O)[C@H]([C@@H](C)CC)n3cc([C@@H](N)CC(C)C)nn3)CC2)n1,"inconclusive: 1.46 µM [rising, full curve]"
5,Cc1cc(F)ccc1S(=O)(=O)N1CCCCC1CCNC(=O)C(=O)NCc1ccccn1 (centres undefined),"inconclusive: 9.2 µM [cytotoxic, partial curve, poor fit]"
6,Cc1ccc(S(=O)(=O)c2nc(C)c3c(n2)CCC3)cc1,inactive
7,CCCC(=O)Nc1nc2ccc3nc(C)sc3c2s1,inactive
8,COc1ccccc1NCC(=O)c1ccc(C)c(C)c1,inactive
9,CCCCCN(C(=O)CCC(=O)OCc1ccc(C(C)C)cc1)c1c(N)n(CCCC)c(=O)[nH]c1=O,inactive
10,Cc1ccc(C(=O)/C=C/Nc2cccc(O)c2)cc1,inactive
11,CC(C)C(=O)N1CCC1(C)C(=O)Nc1ccc2[nH]ccc2c1 (centres undefined),inactive
12,CN(CC(=O)Nc1ccccc1C(F)(F)F)C(=O)C1CC1,"inconclusive: 32.6 µM [rising, single point]"
13,COc1cc(C(=O)NNC(=S)NC(=O)c2ccc(F)cc2)cc(OC)c1OC,"inconclusive: 9.2 µM [cytotoxic, partial curve, poor fit]"
14,CSc1nc(N)nc2c1ncn2CC(=O)NCCCc1ccccc1,inactive
15,Cc1c(C)c2ccc(OC3CCCCC3=O)cc2oc1=O (centres undefined),inactive
16,CC1CCCC(NC(=O)COC(=O)c2cc(S(=O)(=O)N3CCOCC3)ccc2F)C1C (centres undefined),"inconclusive: 20.6 µM [rising, single point]"
17,CCc1cccc2c(C(=O)CN3C(=O)NC(C)(c4cccc5ccccc45)C3=O)c[nH]c12 (centres undefined),active: 23.1 µM
18,O=C1C(=NO)CCCc2ccccc21,"inconclusive: 0.92 µM [rising, full curve]"
19,CCN1C=C(C(=O)OC)C(c2cccc(OC)c2OC)C(C(=O)OC)=C1,"inconclusive: 13 µM [cytotoxic, partial curve, poor fit]"
20,O=C(CN(c1ccc2c(c1)OCCO2)S(=O)(=O)c1ccccc1)N1CCN(Cc2ccccc2)CC1,"inconclusive: 9.2 µM [cytotoxic, partial curve]"
21,CC(=O)Nc1cc(-c2cccc(N)c2)cn2c(-c3ccc(C(C)=O)cc3)cnc12,inactive
22,CC1(c2nnnn2Cc2ccccc2)CCC(=O)N1Cc1cccnc1 (centres undefined),inactive
23,CS(=O)(=O)c1ccc2nc(NC(=O)C3CCCO3)sc2c1 (centres undefined),inactive

row,SMILES,Potency
1,CC1CCC(NC(=O)CN2C(=O)NC3(CCCCCC3)C2=O)CC1 (centres undefined),"inconclusive: 1.64 µM [cytotoxic, full curve, poor fit]"
2,O=C(COc1ccc(-c2ccccc2)cc1)N/N=C/c1cccnc1,inactive
3,O=C(Nc1nc(-c2ccco2)c(-c2ccco2)s1)C1CC(=O)N(c2ccc3c(c2)OCCO3)C1 (centres undefined),inactive
4,CC1(C)Nc2ccccc2N(CC(=O)N2CCCCC2)C1=O,"inconclusive: 11.6 µM [rising, partial curve, poor fit]"
5,O=C(Nc1ccc(C(=O)OCc2cc(=O)n3ccsc3n2)cc1)c1cccc(F)c1,"inconclusive: 16.4 µM [rising, single point]"
6,Cc1ccc(Nc2nc(N/N=C\c3ccc4c(c3)OCO4)nc(N3CCOCC3)n2)cc1,inactive
7,COc1ccc(Nc2c3c(nc4ccc(NC(=O)c5cc(Cl)ccc5OC)cc24)CCCC3)cc1OC,"inconclusive: 29.1 µM [cytotoxic, single point]"
8,Cc1cc(C)cc(NC(=O)N2CCC(N3CCN(Cc4ccccc4)C(=O)C3=O)CC2)c1,inactive
9,O=c1c(Cc2c(F)cccc2Cl)c(O)ccn1CCc1c[nH]c2ccccc12,"inconclusive: 20.6 µM [rising, single point]"
10,Cc1ccccc1Nc1nc(N)nc(COC(=O)[C@@H](NC(=O)c2ccccc2Cl)C(C)C)n1,"inconclusive: 11.6 µM [cytotoxic, partial curve, poor fit]"
11,Cc1cc(C)c2c(=O)n(CC(=O)Nc3cccc(Cl)c3C)sc2n1,"inconclusive: 10.3 µM [rising, partial curve, poor fit]"
12,O=C(CSc1ncn(-c2ccccc2)n1)c1cccs1,inactive
13,CCCC1CCC(C(=O)n2nc(N)c3cc4ccc(OC)cc4nc32)CC1 (centres undefined),"inconclusive: 29.1 µM [rising, single point]"
14,CCN1C(=O)[C@@H]2Cc3c([nH]c4ccccc34)C(c3ccc(OC)cc3)N2C1=S (some centres undefined),"inconclusive: 8.2 µM [cytotoxic, partial curve]"
15,Cc1cc(C)c2sc(N(CCCN(C)C)C(=O)c3ccc(S(=O)(=O)N4CCCc5ccccc54)cc3)nc2c1,"inconclusive: 18.4 µM [cytotoxic, single point]"
16,COC(=O)c1scc(-c2ccccc2)c1S(=O)(=O)Nc1ccc(C)c(Cl)c1,"inconclusive: 23.1 µM [cytotoxic, single point]"
17,O=C(Cc1ccc(Cl)cc1)N/N=C/c1ccc(O)c(O)c1,"inconclusive: 29.1 µM [cytotoxic, partial curve, poor fit]"
18,COCCn1c(SCC(=O)Nc2nc(C)c(Cl)cc2Cl)nc2ccccc21,"inconclusive: 2.31 µM [cytotoxic, full curve]"
19,CC(C)(C)c1ccc(C(=O)NNC(=S)NC(=O)c2cccnc2)cc1,"inconclusive: 6.51 µM [cytotoxic, full curve, poor fit]"
20,Cc1cc(NC(=O)COC(=O)c2c(C)nn(-c3ccccc3)c2C)no1,"inconclusive: 7.31 µM [cytotoxic, partial curve, poor fit]"
21,COc1ccc(C2=NN(C(=O)COC(=O)c3ccc(S(C)(=O)=O)c([N+](=O)[O-])c3)C(c3ccco3)C2)cc1 (centres undefined),"inconclusive: 18.4 µM [cytotoxic, single point]"
22,O=[N+]([O-])c1ccc(S(=O)(=O)CC2CSc3nc4ccccc4n32)cc1 (centres undefined),active: 2.59 µM
23,CCCn1cc(CN2CCC(n3nccc3NC(=O)C(OC)c3ccccc3)CC2)c(C)n1 (centres undefined),"inconclusive: 29.1 µM [rising, single point]"

# Fetched by structure from above (two):
row,SMILES,Potency
6,Cc1ccc(Nc2nc(N/N=C\c3ccc4c(c3)OCO4)nc(N3CCOCC3)n2)cc1,inactive
16,COC(=O)c1scc(-c2ccccc2)c1S(=O)(=O)Nc1ccc(C)c(Cl)c1,"inconclusive: 23.1 µM [cytotoxic, single point]"
